Results deposited as PubChem BioAssay AID652243 (Drosophila RNAi Screening Center, 2013).

Screen: 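Knock-downs that decrease or increase androgen receptor reporter signal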 (primary screen)
System: Drosophila S2R+ cells
Knock-down reagent: long dsRNA against Drosophila genes
Duration: 72 h (48 h, then 24 h hormone)
Treatment: synthetic androgen R1881 at 10 nM for 24 h
Measured: 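Per-well raw luminescence of the androgen-driven firefly reporter and of the Renilla control, two replicates each, without normalisation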
Scale: firefly reporter light: higher = more light from androgen-responsive reporter; Renilla control light: higher = more constitutive control signal (cell number, transfection)
Call rule: 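Across duplicate plates, a knock-down whose log firefly/Renilla ratio shifted a set fold down or up from the GFP/LacZ control mean was a hit; the downward cut appears as both 1.5 and 3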
Calls: active = hit: reporter lowered or raised; inactive = no hit
In all, the deposit lists about 24,000 reagents; shown is an unselected part of those with a known target gene and a result. In the full data, 246 (1%) were called active. 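Plates not normalised; calls are printed but the firefly/Renilla ratio behind them is not deposited; fold cut for lowering reported inconsistently.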 Raw values vary from plate to plate and are shown uncorrected. Not stated in the record: the amount of reagent.

Target gene	dsRNA	firefly reporter light, replicate 1	firefly reporter light, replicate 2	Renilla control light, replicate 1	Renilla control light, replicate 2	outcome
Ubx (Ultrabithorax)	DRSC16891	3.47e5	4.26e5	2.35e6	2.80e6	inactive
Ubx (Ultrabithorax)	DRSC23812	6.10e5	4.29e5	1.84e6	5.62e5	inactive
Ubx (Ultrabithorax)	DRSC37677	5.41e5	5.28e5	1.90e6	1.60e6	inactive
CG15236	DRSC23025	1.93e5	2.70e5	1.31e6	1.68e6	inactive
CG15236	DRSC25883	3.25e5	3.40e5	1.56e6	1.27e6	inactive
CG15236	DRSC39022	9.22e5	7.99e5	1.83e6	1.50e6	inactive
Acp53C14c (Accessory gland protein 53C14c)	DRSC38868	8.17e5	7.78e5	1.46e6	1.78e6	inactive
Vps16A (Vacuolar protein sorting 16A)	DRSC16422	74510	1.79e5	1.58e6	2.03e6	inactive
betaTub85D (beta-Tubulin at 85D)	DRSC16910	2.10e5	1.97e5	2.24e6	2.22e6	inactive
betaTub85D (beta-Tubulin at 85D)	DRSC25043	1.06e6	8.71e5	1.16e6	9.60e5	inactive
Lim3	DRSC23034	9.41e5	1.27e6	2.00e6	1.56e6	inactive
Lim3	DRSC28555	3.46e5	5.45e5	9.60e5	1.27e6	inactive
Cp36 (Chorion protein 36)	DRSC18452	2.59e5	1.99e5	2.56e6	1.99e6	inactive
Cp36 (Chorion protein 36)	DRSC27244	2.04e5	2.66e5	4.31e5	5.94e5	inactive
CG31388	DRSC15254	34276	87889	3.71e5	4.42e5	inactive
Muc12Ea (Mucin 12Ea)	DRSC19937	5.44e5	6.05e5	1.63e6	1.83e6	inactive
Muc12Ea (Mucin 12Ea)	DRSC28059	2.77e5	2.77e5	1.06e6	9.85e5	inactive
CG4328	DRSC23146	6.90e5	9.67e5	8.94e5	9.42e5	inactive
CG4328	DRSC28606	4.22e5	3.46e5	1.35e6	1.24e6	inactive
Zasp66 (Z band alternatively spliced PDZ-motif protein 66)	DRSC08932	1.74e5	63463	1.60e5	73227	inactive
Zasp66 (Z band alternatively spliced PDZ-motif protein 66)	DRSC10631	1.37e6	1.05e6	2.08e6	2.20e6	inactive
Zasp66 (Z band alternatively spliced PDZ-motif protein 66)	DRSC10632	3.22e5	2.94e5	2.40e6	2.73e6	inactive
sov (small ovary)	DRSC17930	1.33e5	88716	1.04e6	7.40e5	inactive
sov (small ovary)	DRSC24302	7.15e5	1.12e6	7.63e5	9.00e5	inactive
gig (gigas)	DRSC11351	41719	52447	2.62e5	2.14e5	inactive
gig (gigas)	DRSC29781	6.75e5	5.43e5	1.87e6	1.55e6	inactive
CG43693	DRSC09086	2.81e5	1.93e5	3.89e5	3.85e5	inactive
CG43693	DRSC10625	9.77e5	7.28e5	1.20e6	1.78e6	inactive
CG43693	DRSC38675	9.14e5	7.93e5	2.11e6	2.23e6	inactive
CG10903	DRSC14281	93770	1.23e5	1.76e6	1.36e6	inactive
Vmat (Vesicular monoamine transporter)	DRSC06961	8.35e5	1.17e6	2.71e6	2.69e6	inactive
Vmat (Vesicular monoamine transporter)	DRSC06962	1.54e5	1.76e5	2.73e6	2.73e6	inactive
Vmat (Vesicular monoamine transporter)	DRSC22223	4.14e5	3.70e5	1.18e6	1.20e6	inactive
CG10845	DRSC14272	1.63e5	1.70e5	1.78e6	2.15e6	inactive
MED24 (Mediator complex subunit 24)	DRSC10944	1.16e5	1.56e5	2.14e6	1.82e6	inactive
Elp6 (Elongator complex protein 6)	DRSC16571	50455	56240	3.71e5	4.14e5	inactive
bard	DRSC14796	46278	38029	7.15e5	5.04e5	inactive
CG13930	DRSC08399	78389	63013	8.21e5	8.25e5	inactive
CG13930	DRSC28494	6.45e5	9.61e5	8.81e5	9.83e5	inactive
cdm (cadmus)	DRSC16213	48973	66862	3.89e5	4.88e5	inactive

Already shown: 4 of the entries above.
Target gene	dsRNA	firefly reporter light, replicate 1	firefly reporter light, replicate 2	Renilla control light, replicate 1	Renilla control light, replicate 2	outcome
Cp36 (Chorion protein 36)	DRSC27244	2.04e5	2.66e5	4.31e5	5.94e5	inactive
CG31388	DRSC15254	34276	87889	3.71e5	4.42e5	inactive
Muc12Ea (Mucin 12Ea)	DRSC19937	5.44e5	6.05e5	1.63e6	1.83e6	inactive
Muc12Ea (Mucin 12Ea)	DRSC28059	2.77e5	2.77e5	1.06e6	9.85e5	inactive
